The target of this assay is PKM2 (pyruvate kinase isoform M2), endogenous in treated cells (human (endogenous in human colorectal cancer cell lines)) (UniProt P14618). As to the kind of experiment: co-IP; cells treated with 125I-HMGB1 (80 nM, 24 h) with or without P-M2tide (10 uM, 24 h) or ML-265 (100 uM, 24 h); PKM2 immunoprecipitated; radioactivity measured in a liquid scintillation counter; only the binder purified.

By UniProt entry, the sequences of proteins in these tests, tags left out.
UniProt P14618: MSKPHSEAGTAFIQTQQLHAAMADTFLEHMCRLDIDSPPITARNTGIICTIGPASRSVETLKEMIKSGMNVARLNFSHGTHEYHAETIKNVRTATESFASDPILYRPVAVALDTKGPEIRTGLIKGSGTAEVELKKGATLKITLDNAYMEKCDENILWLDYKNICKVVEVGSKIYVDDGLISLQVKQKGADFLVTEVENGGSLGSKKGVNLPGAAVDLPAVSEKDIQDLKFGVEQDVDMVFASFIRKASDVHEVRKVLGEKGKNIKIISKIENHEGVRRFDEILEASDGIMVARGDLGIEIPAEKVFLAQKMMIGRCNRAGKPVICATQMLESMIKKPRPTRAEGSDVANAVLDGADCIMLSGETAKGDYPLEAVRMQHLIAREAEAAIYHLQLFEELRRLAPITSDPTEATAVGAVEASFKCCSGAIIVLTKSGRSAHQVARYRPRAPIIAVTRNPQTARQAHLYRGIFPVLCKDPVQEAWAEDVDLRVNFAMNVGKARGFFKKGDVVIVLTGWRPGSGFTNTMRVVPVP
UniProt P09429: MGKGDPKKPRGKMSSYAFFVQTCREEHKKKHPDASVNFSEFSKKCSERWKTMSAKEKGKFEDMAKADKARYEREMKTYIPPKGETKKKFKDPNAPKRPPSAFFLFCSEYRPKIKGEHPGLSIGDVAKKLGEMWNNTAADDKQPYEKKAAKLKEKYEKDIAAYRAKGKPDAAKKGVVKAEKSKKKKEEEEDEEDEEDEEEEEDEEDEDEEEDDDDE

No constants are given. Whether binding was seen depends on the method and setting. Binding seen in cells or lysates may run through a third protein. Some entries that bind do so weakly or less than the wild type.

The results in this text go back to paper PMC4786644.

As to “125I-labelled HMGB1 (from UniProt P09429 1-215)”, the binding entry is listed as “binds”.
